In patent US8900845B2, “Methods and uses of KSR kinase, and mutations thereof” (Washington University, priority 2011, dated 2014):
At least one compound was matched to its structure with a doubt left.

Molecular target: T1, KSR and CRAF dimer (Homo sapiens, UniProt P04049)
T1 construct: expressed in transfected cells; host or cells: 293T cells
Assay: Co-immunoprecipitation of KSR/CRAF dimers in drug-treated cells
Format: cell-based
Conditions: cells overexpressing FLAG-KSR and myc-CRAF, drug for 1 hour, FLAG-KSR immunoprecipitates immunoblotted for CRAF (myc)

OCCn1cc(-c2ccc3c(c2)CC/C3=N\O)c(-c2ccncc2)n1 [GDC0879]
dimer formation between KSR and CRAF: induce dimer formation between KSR and CRAF
